{"source": "PubChem BioAssay AID540256", "about": "(National Center for Advancing Translational Sciences (NCATS), 2011)", "note": "Out of some 300,000 compounds screened, about 3,700 (1.2%) were called active. Inconclusive means that the source gave no clear call. Such entries were picked first, then a sample of the others. The call rests on the fitted dose curve; tested in HEK293 cells. Potencies of inconclusive entries are doubtful fits and often do not repeat. On the % scale 0 is the no-effect control and ±100 the full control effect; potency means the concentration at half of the fitted maximal effect."}
{"test": "qHTS for Inhibitors of binding or entry into cells for Lassa Virus; further: nearly all actives have a fitted effect of over 50% in size", "details": "Lassa virus pseudotype entry inhibition, cell reporter; activity change, negative = inhibition: at 37.9 µM (top of the series) unless noted"}
{"smiles": "O=C(c1ccc(Cl)cc1)N1CCN(C(=O)c2ccco2)CC1", "activity change, negative = inhibition": "inactive: 20.8%"}
{"smiles": "O=C(Nc1cccc(S(=O)(=O)NC2=NCCCCC2)c1)c1cc(-c2ccccc2)nc2ccccc12", "Potency": "inconclusive: 25.1 µM [inhibitor, single point]"}
{"smiles": "Nc1ccccc1C(=O)OCCOc1ccccc1", "Potency": "inconclusive: 7.94 µM [inhibitor, partial curve, poor fit]"}
{"smiles": "CCOC(=O)N1CCN(C(=O)c2cc(C)c3c(C)nn(-c4ccccc4)c3n2)CC1", "activity change, negative = inhibition": "inactive: 0.32%"}
{"smiles": "CC(NC(=O)COC(=O)CCc1ccc(S(=O)(=O)N2CCOCC2)cc1)C1CC2CCC1C2", "note": "(stereo not given)", "activity change, negative = inhibition": "inactive: -1.17%"}
{"smiles": "CCCCCn1c(=O)[nH]c2cc(C(=O)NCCN3CCCCC3C)ccc2c1=O", "note": "(stereo not given)", "Potency": "inconclusive: 35.5 µM [inhibitor, single point]"}
{"smiles": "COc1ccc(CCNC(=O)Cn2cnc3sc(C)c(-c4ccc(F)cc4)c3c2=O)cc1OC", "Potency": "inconclusive: 35.5 µM [inhibitor, single point]"}
{"smiles": "COc1ccc(NC2=CC(=O)CC(c3ccccc3)C2)c(OC)c1", "note": "(stereo not given)", "Potency": "inconclusive: 2.06 µM [inhibitor, partial curve]"}
{"smiles": "CC(=O)CSc1ncnc2sc3c(c12)CCC(C)C3", "note": "(stereo not given)", "activity change, negative = inhibition": "inactive: 2.26%"}
{"smiles": "CCCN1C2CCCC1CC(NC(=O)NC1CCCCC1)C2", "note": "(stereo not given)", "Potency": "inconclusive: 16.4 µM [activator, partial curve, poor fit]"}
{"smiles": "C=CCOC(=O)N[C@H](C(C(=O)OC)=C(C)NCc1ccccc1)c1cccc(C(F)(F)F)c1", "Potency": "inconclusive: 2.99 µM [activator, single point]"}
{"smiles": "CCOC(=O)c1nnn(-c2nc(N3CCCC3)nc(N3CCCC3)n2)c1-c1ccccc1", "Potency": "inconclusive: 14.6 µM [inhibitor, partial curve, poor fit]"}
{"smiles": "O=C(Cc1ccc2c(c1)OCCO2)Nc1cc(C(F)(F)F)ccc1N1CCOCC1", "Potency": "inconclusive: 4.47 µM [inhibitor, partial curve, poor fit]"}
{"smiles": "CN(C)C(CNC(=O)c1ccc(S(=O)(=O)Nc2ccccc2)cc1)c1ccco1", "note": "(stereo not given)", "activity change, negative = inhibition": "inactive: -2.56%"}
{"smiles": "COC(=O)c1ccccc1NC(=O)Cn1c(=O)n(CCC(=O)NCc2ccccc2OC)c(=O)c2ccccc21", "activity change, negative = inhibition": "inactive: 19.1% [at 46.1 µM]"}
{"smiles": "COc1cc(C(=O)OCc2cc(=O)c(O)co2)ccc1OC(F)F", "activity change, negative = inhibition": "inactive: 14.4% [at 46.1 µM]"}
{"smiles": "COc1ccc(Cl)cc1S(=O)(=O)Nc1cccc(-c2ccc(N3CCCC3)nn2)c1", "Potency": "inconclusive: 35.5 µM [activator, single point]"}
{"smiles": "O=C(c1ccc2c(c1)OCO2)N(Cc1ccco1)C1(C(=O)NC2CCCCC2)CCCCC1", "Potency": "inconclusive: 32.6 µM [inhibitor, single point]"}
{"smiles": "COc1ccc(NS(=O)(=O)c2c(F)cc(F)c(Cl)c2F)cc1S(=O)(=O)N1CCCCC1", "activity change, negative = inhibition": "inactive: 19.8%"}
{"smiles": "CCC(=O)c1ccc(OCc2ccc(C(=O)c3ccccc3)cc2)cc1", "Potency": "active: 5.01 µM"}
{"smiles": "COc1ccccc1NC(=O)CSc1nnc(-c2ccccn2)o1", "Potency": "inconclusive: 10 µM [activator, partial curve, poor fit]"}
{"smiles": "CCN(CC)C(=O)COc1ccc(/C(C)=N/NC(=O)c2ccccc2-n2cccc2)cc1", "activity change, negative = inhibition": "inactive: -13%"}
{"smiles": "COc1ccc2occ(C(=O)c3coc4ccc(O)c(CN(C)C)c34)c2c1", "activity change, negative = inhibition": "inactive: -13.5%"}
{"smiles": "Cc1ccc(-n2ncc3c(=O)n(CC(=O)N(C)C)cnc32)cc1C", "activity change, negative = inhibition": "inactive: 0.959% [at 46.1 µM]"}
{"smiles": "O=C(NNC(=O)c1cc(OCC(F)(F)F)ccc1OCC(F)(F)F)c1cccc(C(F)(F)F)c1", "activity change, negative = inhibition": "inactive: -5.14%"}
{"smiles": "O=C(O)c1cccc(N=NN2CCCCCC2)c1", "Potency": "inconclusive: 11.6 µM [inhibitor, partial curve, poor fit]"}
{"smiles": "CC(=O)c1cc(C(C)=O)c(C)nc1C", "activity change, negative = inhibition": "inactive: -3.84%"}
{"smiles": "COc1ccc(-c2cn3cccnc3n2)cc1NC(=O)C(C)Oc1ccccc1", "note": "(stereo not given)", "Potency": "inconclusive: 8.91 µM [inhibitor, partial curve, poor fit]"}
{"smiles": "COc1cccc2c1OCC([C@@H]1C[C@H]3CN(Cc4cccc(Cl)c4)C(=O)[C@]34CCCN14)=C2", "Potency": "inconclusive: 11.2 µM [inhibitor, partial curve, poor fit]"}
{"smiles": "CC(C)CC(=O)NC(c1ccccc1)c1c(O)ccc2ccccc12", "note": "(stereo not given)", "activity change, negative = inhibition": "inactive: 4.09%"}
{"smiles": "CC1(C)S[C@@H]2[C@H](NC(=O)Cc3ccccc3)C(=O)N2[C@H]1C(=O)O", "activity change, negative = inhibition": "inactive: 4.12%"}
{"smiles": "CCS(=O)(=O)Nc1ccc(C2=NN(C(=O)c3ccco3)C(c3cccs3)C2)cc1", "note": "(stereo not given)", "Potency": "inconclusive: 15.8 µM [inhibitor, partial curve, poor fit]"}
{"smiles": "CC(C)CC(=O)NC(=S)Nc1sc2c(c1C(N)=O)CCC2", "activity change, negative = inhibition": "inactive: 0.817%"}
{"smiles": "CCCSC1=NN2CCCC(=O)N=C2S1", "Potency": "inconclusive: 20 µM [activator, single point]"}
{"smiles": "CCOc1cccc(C(=O)NC(=S)Nc2ccc(N3CCCC3)cc2)c1", "activity change, negative = inhibition": "inactive: -0.909%"}
{"smiles": "CC(=O)Nc1ccc(N2CCN(Cc3ccccc3F)CC2)cc1", "Potency": "inconclusive: 0.651 µM [inhibitor, full curve, poor fit]"}
{"smiles": "CSc1ccccc1NC(=O)CN(C)CC(=O)NCC(=O)Nc1ccc(F)cc1", "Potency": "inconclusive: 1.26 µM [activator, single point]"}
{"smiles": "O=C(CSc1nccn1C1CCCC1)Nc1cccc(F)c1", "activity change, negative = inhibition": "inactive: 0.266% [at 46.1 µM]"}
{"smiles": "COc1ccc(CCNC(=O)c2nc(SCc3ccccc3F)ncc2Cl)cc1OC", "Potency": "inconclusive: 28.2 µM [inhibitor, single point]"}
{"smiles": "C[n+]1cc[nH]c1SCC(=O)c1ccccc1", "Potency": "inconclusive: 0.316 µM [activator, full curve]"}
{"smiles": "CCOC(=O)c1c(NC(=O)C2=C(C)NC(=S)NC2c2ccccc2C(F)(F)F)sc(C)c1C", "note": "(stereo not given)", "activity change, negative = inhibition": "inactive: -28.8%"}
{"smiles": "COCCNC(=O)c1cccc2c1-c1ccccc1C2=O", "Potency": "inconclusive: 12.6 µM [inhibitor, partial curve, poor fit]"}
{"smiles": "O=C(Nc1ccc2c(c1)OCCO2)c1ccc(Br)c(S(=O)(=O)N2CCOCC2)c1", "Potency": "inconclusive: 35.5 µM [inhibitor, single point]"}
{"smiles": "O=S(=O)(c1cccc(F)c1)N1CCc2sccc2C1c1ccc(OC(F)(F)F)cc1", "note": "(stereo not given)", "Potency": "inconclusive: 20 µM [inhibitor, partial curve, poor fit]"}
{"smiles": "Cc1cccc(N2CCN(c3ccc(C(=O)O)cc3NC(=O)c3cccc(Cl)c3)CC2C)c1", "note": "(stereo not given)", "activity change, negative = inhibition": "inconclusive: 32.2% [activator] [at 46.1 µM]"}
{"smiles": "CCOC(=O)C1CCN(C(=O)c2cccc(Cl)c2)CC1", "activity change, negative = inhibition": "inactive: -4.84%"}
{"smiles": "C=CCn1c(C)cc(C2=NNC(=NCC)SC2)c1C", "Potency": "active: 1.64 µM"}
{"smiles": "CCN(CC)c1ncnc2c1ncn2Cc1c(Cl)cccc1Cl", "Potency": "inconclusive: 29.1 µM [inhibitor, single point]"}
{"smiles": "C/C(Cl)=C\\Cn1c(N2CCCC2)nc2c1c(=O)[nH]c(=O)n2C", "activity change, negative = inhibition": "inactive: 4.83%"}
{"smiles": "Cc1cccc(C)c1OCc1cc(C(=O)N2CCCCCCC2)no1", "Potency": "inconclusive: 11.2 µM [inhibitor, single point]"}
{"smiles": "CCN(CC)S(=O)(=O)c1ccc(NC(=O)c2ccc(N(C)S(C)(=O)=O)cc2)cc1", "Potency": "inconclusive: 35.5 µM [inhibitor, single point]"}
{"smiles": "O=[N+]([O-])c1cccc(/C=C/c2ccncc2)c1", "Potency": "inconclusive: 8.2 µM [inhibitor, partial curve, poor fit]"}
{"smiles": "CC(C)(C)c1ccc(C(=O)Nc2ccccc2NC(=O)c2ccco2)cc1", "Potency": "inconclusive: 15.8 µM [inhibitor, single point]"}
{"smiles": "CCOc1ccc(C(=O)CSc2nnc3ccccn23)cc1", "Potency": "inconclusive: 0.199 µM [activator, full curve, poor fit]"}
{"smiles": "O=C1N(Cc2cccc(Cl)c2)C[C@@H]2C[C@@H](c3cccn3-c3cccnc3)N3CCC[C@@]123", "Potency": "inconclusive: 15.8 µM [inhibitor, partial curve, poor fit]"}
{"smiles": "CCOc1ccccc1N(CC(=O)N/N=C(\\C)c1cccc(Br)c1)S(C)(=O)=O", "Potency": "inconclusive: 2 µM [inhibitor, partial curve, poor fit]"}
{"smiles": "COc1cc(CC(=O)OCC(=O)Nc2sccc2C(N)=O)cc(OC)c1OC", "Potency": "inconclusive: 35.5 µM [inhibitor, single point]"}
{"smiles": "CCCN(CCC)C(=O)Cn1c(SCc2cccc(C(F)(F)F)c2)nc2cccnc21", "activity change, negative = inhibition": "inactive: -0.858% [at 46.1 µM]"}
{"smiles": "CCOC(=O)C1CCCN(C(=O)c2cc(=O)c3ccccc3o2)C1", "note": "(stereo not given)", "activity change, negative = inhibition": "inactive: 26.2%"}
{"smiles": "Cc1cccc(C(=O)OCC(=O)N(C)c2ccccc2)c1C", "Potency": "inconclusive: 15.8 µM [inhibitor, single point]"}
{"smiles": "CCC(C)c1ccc(OCc2ccc(C(=O)O)o2)cc1", "note": "(stereo not given)", "Potency": "inconclusive: 1.26 µM [inhibitor, full curve]"}
{"smiles": "Cc1ccc(CS(=O)(=O)CCC(=O)NCCc2ccccc2)cc1", "Potency": "inconclusive: 35.5 µM [inhibitor, single point]"}
{"smiles": "NC(=O)Cn1cc(/C=N\\NS(=O)(=O)c2ccc(F)cc2)c2ccccc21", "Potency": "inconclusive: 1.26 µM [inhibitor, single point]"}
{"smiles": "CCOc1ccccc1CNC(=O)c1ccc(NC(=O)N2CC(C)Sc3ccccc32)cc1", "note": "(stereo not given)", "Potency": "inconclusive: 3.16 µM [inhibitor, full curve, poor fit]"}
{"smiles": "Cc1cccc(C(=O)c2c(N)sc3c2CCC(C)C3)c1", "note": "(stereo not given)", "activity change, negative = inhibition": "inactive: 10.7%"}
{"smiles": "C/C(CC(=O)Nc1ccc(Cl)c(Cl)c1)=N\\NC(N)=S", "Potency": "inconclusive: 25.9 µM [activator, partial curve, poor fit]"}
{"smiles": "COc1ccc2[nH]c3c(c2c1)CCC/C3=N\\N", "Potency": "inconclusive: 12.6 µM [activator, single point]"}
{"smiles": "CC(CNC(=O)C1CCN(C(=O)N2CCOc3ccc(Cl)cc32)CC1)c1ccccc1", "note": "(stereo not given)", "activity change, negative = inhibition": "inactive: -16.6% [at 46.1 µM]"}
{"smiles": "O=C(NCCCc1nc2ccccc2n1Cc1ccccc1Cl)c1ccco1", "activity change, negative = inhibition": "inactive: -11.3% [at 46.1 µM]"}
{"smiles": "CC(=O)c1ccc(NC(=O)CCC(=O)N2CC(C)Oc3ccc(C)cc32)cc1", "note": "(stereo not given)", "Potency": "inconclusive: 11.2 µM [inhibitor, partial curve, poor fit]"}
